From article PMC5824887, “A family of unconventional deubiquitinases with modular chain specificity determinants” (Nature Communications, 2018)

The chains behind the UniProt entries cited, without tags or fusion partners.
UniProt O95071: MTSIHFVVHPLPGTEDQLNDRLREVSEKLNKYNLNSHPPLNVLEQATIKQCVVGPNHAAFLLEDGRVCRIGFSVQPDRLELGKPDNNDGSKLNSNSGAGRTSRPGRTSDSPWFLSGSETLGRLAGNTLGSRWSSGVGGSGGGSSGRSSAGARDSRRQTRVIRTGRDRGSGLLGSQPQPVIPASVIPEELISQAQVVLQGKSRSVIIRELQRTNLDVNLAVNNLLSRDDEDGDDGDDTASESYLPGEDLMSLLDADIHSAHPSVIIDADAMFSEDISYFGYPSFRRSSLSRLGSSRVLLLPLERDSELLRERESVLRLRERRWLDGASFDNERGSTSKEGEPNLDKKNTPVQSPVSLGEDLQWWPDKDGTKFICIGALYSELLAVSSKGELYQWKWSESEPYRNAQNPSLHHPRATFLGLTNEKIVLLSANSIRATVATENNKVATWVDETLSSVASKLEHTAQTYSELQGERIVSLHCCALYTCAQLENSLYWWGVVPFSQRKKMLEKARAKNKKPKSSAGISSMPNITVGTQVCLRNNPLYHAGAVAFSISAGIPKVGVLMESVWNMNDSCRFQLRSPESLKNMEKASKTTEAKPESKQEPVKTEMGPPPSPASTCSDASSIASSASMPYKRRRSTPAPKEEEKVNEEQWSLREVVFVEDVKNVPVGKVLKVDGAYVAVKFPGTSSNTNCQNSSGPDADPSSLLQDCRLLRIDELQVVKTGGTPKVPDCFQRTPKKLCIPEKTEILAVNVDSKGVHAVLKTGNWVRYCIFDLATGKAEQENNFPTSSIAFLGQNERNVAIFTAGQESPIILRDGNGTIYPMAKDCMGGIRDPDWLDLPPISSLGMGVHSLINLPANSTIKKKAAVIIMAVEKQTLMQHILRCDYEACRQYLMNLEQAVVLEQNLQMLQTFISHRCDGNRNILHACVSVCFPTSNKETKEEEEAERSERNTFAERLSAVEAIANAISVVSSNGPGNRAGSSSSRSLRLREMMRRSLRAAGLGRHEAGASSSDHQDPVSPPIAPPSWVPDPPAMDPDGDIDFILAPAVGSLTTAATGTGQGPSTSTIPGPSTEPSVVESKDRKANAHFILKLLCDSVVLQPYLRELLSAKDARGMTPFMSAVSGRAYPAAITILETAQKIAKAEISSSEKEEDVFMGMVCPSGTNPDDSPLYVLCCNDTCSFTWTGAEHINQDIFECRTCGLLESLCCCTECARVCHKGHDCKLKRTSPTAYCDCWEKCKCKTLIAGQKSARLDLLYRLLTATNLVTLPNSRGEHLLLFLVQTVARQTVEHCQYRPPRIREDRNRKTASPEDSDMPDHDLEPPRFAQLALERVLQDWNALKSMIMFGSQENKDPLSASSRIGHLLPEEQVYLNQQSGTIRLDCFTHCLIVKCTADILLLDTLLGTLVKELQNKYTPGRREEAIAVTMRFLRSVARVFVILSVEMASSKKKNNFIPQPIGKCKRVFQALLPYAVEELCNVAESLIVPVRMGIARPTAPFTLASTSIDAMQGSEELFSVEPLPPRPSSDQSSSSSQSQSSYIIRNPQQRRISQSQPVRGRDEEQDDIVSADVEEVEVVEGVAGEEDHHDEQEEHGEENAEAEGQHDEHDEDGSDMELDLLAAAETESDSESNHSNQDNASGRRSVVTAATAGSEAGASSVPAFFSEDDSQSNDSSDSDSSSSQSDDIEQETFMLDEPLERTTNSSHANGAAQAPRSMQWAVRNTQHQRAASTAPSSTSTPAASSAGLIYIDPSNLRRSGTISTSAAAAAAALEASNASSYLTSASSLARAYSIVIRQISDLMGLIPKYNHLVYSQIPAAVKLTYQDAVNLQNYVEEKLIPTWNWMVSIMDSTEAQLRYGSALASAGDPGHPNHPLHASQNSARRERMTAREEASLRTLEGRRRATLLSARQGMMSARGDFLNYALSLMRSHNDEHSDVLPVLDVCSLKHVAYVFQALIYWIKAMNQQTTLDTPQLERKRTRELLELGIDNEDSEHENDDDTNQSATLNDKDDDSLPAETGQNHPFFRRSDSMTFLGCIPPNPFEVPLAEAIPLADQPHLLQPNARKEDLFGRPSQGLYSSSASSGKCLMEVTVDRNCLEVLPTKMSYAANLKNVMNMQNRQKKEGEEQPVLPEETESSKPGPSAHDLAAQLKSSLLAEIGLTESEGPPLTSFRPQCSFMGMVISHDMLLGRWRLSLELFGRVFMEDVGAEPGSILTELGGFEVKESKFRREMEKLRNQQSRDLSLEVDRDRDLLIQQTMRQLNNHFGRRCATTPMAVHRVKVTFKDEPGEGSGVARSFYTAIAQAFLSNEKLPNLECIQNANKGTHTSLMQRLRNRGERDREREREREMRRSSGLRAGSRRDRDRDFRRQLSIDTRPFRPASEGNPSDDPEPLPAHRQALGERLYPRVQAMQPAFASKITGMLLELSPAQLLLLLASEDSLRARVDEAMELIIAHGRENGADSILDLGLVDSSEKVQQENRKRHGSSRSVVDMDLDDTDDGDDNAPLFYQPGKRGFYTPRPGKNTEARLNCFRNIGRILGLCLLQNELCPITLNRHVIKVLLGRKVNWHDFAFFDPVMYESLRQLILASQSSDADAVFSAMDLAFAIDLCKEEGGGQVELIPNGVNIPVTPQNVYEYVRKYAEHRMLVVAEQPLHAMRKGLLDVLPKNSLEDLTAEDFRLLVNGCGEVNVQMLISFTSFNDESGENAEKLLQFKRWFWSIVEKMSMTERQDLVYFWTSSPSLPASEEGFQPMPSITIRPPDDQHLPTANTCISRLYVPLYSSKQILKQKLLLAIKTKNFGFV
UniProt P51784: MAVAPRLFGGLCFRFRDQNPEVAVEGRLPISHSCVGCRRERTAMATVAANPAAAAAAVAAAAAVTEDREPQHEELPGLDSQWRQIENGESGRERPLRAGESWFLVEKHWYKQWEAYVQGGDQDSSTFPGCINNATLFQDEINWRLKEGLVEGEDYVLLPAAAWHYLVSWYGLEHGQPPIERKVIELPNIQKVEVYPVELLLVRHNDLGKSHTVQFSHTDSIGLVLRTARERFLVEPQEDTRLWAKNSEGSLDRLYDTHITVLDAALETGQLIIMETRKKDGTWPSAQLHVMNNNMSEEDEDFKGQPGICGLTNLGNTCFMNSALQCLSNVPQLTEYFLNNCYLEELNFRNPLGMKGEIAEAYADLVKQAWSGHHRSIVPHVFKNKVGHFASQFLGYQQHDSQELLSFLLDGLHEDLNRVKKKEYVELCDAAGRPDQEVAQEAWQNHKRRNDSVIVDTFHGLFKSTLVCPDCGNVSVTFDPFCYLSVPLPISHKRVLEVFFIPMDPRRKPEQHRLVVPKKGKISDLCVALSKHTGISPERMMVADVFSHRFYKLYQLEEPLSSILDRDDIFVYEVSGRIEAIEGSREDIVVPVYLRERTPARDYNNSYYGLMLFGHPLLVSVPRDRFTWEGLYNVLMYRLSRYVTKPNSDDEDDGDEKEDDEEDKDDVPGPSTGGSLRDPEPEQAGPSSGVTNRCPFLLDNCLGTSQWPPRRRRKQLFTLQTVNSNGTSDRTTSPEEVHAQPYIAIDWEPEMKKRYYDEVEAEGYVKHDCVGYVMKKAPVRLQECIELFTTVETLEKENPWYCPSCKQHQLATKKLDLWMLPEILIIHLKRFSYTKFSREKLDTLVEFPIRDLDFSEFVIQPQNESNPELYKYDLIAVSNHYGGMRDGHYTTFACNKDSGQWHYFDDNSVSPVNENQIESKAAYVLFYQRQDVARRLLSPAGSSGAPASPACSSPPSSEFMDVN
UniProt Q15170: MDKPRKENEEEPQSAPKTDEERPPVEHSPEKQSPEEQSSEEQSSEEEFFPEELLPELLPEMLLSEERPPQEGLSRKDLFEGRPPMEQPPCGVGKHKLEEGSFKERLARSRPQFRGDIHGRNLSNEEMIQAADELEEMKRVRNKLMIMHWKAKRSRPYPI

Experiments:
[1] = target: T1, 3xFLAG-ZUFSP, full length, wild type (human) (UniProt Q96AP4); test: affinity purification with mass spectrometry; 3xFLAG-ZUFSP immunopurified on anti-FLAG M2 beads from cell lysate (20 mM TRIS pH 7, 150 mM NaCl, 0.1% NP-40), eluted with 3xFLAG peptide; label-free LC-MS/MS against uninduced/untransfected controls; no nuclease
T1 sequence: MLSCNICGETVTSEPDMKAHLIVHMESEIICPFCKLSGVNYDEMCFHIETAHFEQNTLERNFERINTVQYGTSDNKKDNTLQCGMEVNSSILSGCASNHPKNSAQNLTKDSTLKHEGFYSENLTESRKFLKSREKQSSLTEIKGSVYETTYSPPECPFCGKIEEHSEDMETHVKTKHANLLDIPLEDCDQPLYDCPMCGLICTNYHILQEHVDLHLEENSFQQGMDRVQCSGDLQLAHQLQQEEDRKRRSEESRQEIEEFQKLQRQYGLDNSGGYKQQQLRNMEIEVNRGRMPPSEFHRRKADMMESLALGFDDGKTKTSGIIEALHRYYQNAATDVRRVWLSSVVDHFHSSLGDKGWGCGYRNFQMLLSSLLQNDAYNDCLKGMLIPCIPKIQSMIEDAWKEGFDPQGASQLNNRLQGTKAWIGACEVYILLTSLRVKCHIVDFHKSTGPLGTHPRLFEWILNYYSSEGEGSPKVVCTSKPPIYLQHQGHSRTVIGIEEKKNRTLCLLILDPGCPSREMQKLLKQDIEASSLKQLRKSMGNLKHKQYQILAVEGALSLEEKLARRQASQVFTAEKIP

[2] = target: T2, 3xFLAG-ZUFSP C360A (human) (UniProt Q96AP4); test: as above
T2 sequence: T1 sequence with C360A

[3] = target: T1, 3xFLAG-ZUFSP, full length, wild type (human); test: affinity purification with mass spectrometry; as the FLAG immunopurification with LC-MS/MS, repeated in the presence of nuclease

| binding [1] | binding [2] | binding [3] | Substance |
| --- | --- | --- | --- |
| binds | binds |  | ubiquitin ligase UBR5 (from UniProt O95071 1-2799) (enzyme) |
| binds | binds | binds | deubiquitinase USP11 (from UniProt P51784 1-963) (enzyme) |
| binds | binds | binds | uncharacterized protein TCEAL1 (from UniProt Q15170 1-159) |

Changes are numbered by the printed parent chain. No constants are given. Whether binding was seen depends on the method and setting. In cells and extracts the contact can be indirect. Here binding means that the protein was enriched with, or labelled near, the bait; the list need not be complete. Where a sequence is shown, tags or fusion partners need not be part of it.
